No constants are given. Whether binding was seen depends on the method and setting. Sequences can lack the tags named with a protein.
Molecular target: Rad50 K81I (S. pombe), two-hybrid fusion (S. pombe) (UniProt Q9UTJ8)
Assay: two-hybrid; GBD and GAD plasmids (pGBKT7, pGADT7) co-transformed in strain PJ69-4A; HIS3 and ADE2 reporters, 3 mM 3-aminotriazole in some plates; 30 °C, 3-4 days

By UniProt entry, the sequences of proteins in these tests, tags left out. Where a name states a change or a piece, a line headed by the entry shows the natural chain unless it says otherwise.
UniProt Q9UTJ8: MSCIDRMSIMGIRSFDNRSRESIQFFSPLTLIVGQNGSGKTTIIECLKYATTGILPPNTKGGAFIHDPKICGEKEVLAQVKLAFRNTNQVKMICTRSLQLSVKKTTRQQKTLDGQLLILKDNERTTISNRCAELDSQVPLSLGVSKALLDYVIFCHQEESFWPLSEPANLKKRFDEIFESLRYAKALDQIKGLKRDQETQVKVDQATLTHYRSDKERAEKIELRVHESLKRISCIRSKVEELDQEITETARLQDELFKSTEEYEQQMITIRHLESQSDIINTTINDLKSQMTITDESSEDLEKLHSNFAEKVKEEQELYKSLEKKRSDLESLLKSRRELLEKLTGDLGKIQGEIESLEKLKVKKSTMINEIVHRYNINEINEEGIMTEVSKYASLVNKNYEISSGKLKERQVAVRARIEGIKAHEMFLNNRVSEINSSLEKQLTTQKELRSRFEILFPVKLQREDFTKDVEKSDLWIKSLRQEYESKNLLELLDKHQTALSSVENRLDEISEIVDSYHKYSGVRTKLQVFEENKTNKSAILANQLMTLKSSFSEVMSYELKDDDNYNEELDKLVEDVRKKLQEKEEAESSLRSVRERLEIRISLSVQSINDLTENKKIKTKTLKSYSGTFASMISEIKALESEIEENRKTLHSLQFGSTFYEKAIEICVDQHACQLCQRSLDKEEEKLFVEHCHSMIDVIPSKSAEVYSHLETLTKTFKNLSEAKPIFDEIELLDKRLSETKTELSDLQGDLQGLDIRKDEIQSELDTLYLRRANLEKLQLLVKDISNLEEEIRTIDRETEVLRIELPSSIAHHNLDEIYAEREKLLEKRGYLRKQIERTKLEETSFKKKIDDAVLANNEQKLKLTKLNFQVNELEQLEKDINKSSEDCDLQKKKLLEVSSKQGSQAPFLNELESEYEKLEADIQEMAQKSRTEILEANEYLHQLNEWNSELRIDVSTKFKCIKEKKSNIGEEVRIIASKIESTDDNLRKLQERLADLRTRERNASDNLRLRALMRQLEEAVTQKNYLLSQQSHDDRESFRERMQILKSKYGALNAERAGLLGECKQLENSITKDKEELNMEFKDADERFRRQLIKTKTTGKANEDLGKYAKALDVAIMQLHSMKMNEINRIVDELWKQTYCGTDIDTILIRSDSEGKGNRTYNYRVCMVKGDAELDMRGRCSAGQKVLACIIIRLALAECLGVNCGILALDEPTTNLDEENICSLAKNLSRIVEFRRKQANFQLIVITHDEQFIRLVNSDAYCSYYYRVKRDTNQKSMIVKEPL

- binding: no binding
B1: Taz1 (S. pombe), two-hybrid fusion (protein, UniProt P79005 1-663)
chain: MISVQSTETIQKVLENEGDQQFDKEVVQNSDSNIETGQISDSLTKAVEERAETESSSNLSNFTTSESESSKPAYCFNSHSQNMAEGSISIPVISHSMNVENEVSTAEGQDSRTGESENDQNAMIVRSIWDIEKASLLVNDCQNIANMAEQKVMMVSAIFSESSKDIVNPESFSERLGKETVKDLYEFNEQLTTKYGLEFRTIFFSYIRKYDAYWCLFEDLEKPLKSIQFFTGLIDLLDNTNKHLTLRSIVLDALLSADEEDSFYGDALVLFEELVIRYFGTDSNPSIDASEFILSCLPYTSLDALNVVCGQVWKSQKICDFLKSTIGNTSNSPLQLRASFPAFVNAVIHFLLEFKNVRRLERKDLSVKGMLYDSDSQQILNRLRERVSGSTAQSADEASGHESDASEDTFSERTLGLNSIDNTEISEVVSLGLVSSALDKITGLLSADNLSETVSQARDFSHTLSKSLKSRAKSLSQKEAANRSKLIAKRGDNLRREASLSSEQDDLSEDFPPVRESDEQESRSGGRSSAMRVSIERSAARSGTRRSQGNPYEGYRTRRKWTDEEENELYEMISQHGCCWSKIIHIQKLENGPLKTFGPTQIKDKARLIKARFMKQNRLQELYSKSLNWKNVTVGQAYCELHKIPYIEATPPLLREELVNYQS

Reference: publication PMC8219681, “Inhibition of MRN activity by a telomere protein motif” (Nature Communications, 2021)
